Source: patent publication US20230220005A1, “S100A8-INHIBITING PEPTIDE AND DISEASE THERAPEUTIC AGENT CONTAINING SAME” (TOKYO WOMEN'S MEDICAL UNIVERSITY, priority 2020, published 2023)
These are yes or no findings as the source states them, for the method shown. Some results given as binding are weak or reduced against the parent protein; the word gives no strength.

Chains of the proteins cited; added tags and fusions are not shown. Lines headed by an entry give the natural chain unless they say otherwise; changes in a name come on top.
UniProt O00206: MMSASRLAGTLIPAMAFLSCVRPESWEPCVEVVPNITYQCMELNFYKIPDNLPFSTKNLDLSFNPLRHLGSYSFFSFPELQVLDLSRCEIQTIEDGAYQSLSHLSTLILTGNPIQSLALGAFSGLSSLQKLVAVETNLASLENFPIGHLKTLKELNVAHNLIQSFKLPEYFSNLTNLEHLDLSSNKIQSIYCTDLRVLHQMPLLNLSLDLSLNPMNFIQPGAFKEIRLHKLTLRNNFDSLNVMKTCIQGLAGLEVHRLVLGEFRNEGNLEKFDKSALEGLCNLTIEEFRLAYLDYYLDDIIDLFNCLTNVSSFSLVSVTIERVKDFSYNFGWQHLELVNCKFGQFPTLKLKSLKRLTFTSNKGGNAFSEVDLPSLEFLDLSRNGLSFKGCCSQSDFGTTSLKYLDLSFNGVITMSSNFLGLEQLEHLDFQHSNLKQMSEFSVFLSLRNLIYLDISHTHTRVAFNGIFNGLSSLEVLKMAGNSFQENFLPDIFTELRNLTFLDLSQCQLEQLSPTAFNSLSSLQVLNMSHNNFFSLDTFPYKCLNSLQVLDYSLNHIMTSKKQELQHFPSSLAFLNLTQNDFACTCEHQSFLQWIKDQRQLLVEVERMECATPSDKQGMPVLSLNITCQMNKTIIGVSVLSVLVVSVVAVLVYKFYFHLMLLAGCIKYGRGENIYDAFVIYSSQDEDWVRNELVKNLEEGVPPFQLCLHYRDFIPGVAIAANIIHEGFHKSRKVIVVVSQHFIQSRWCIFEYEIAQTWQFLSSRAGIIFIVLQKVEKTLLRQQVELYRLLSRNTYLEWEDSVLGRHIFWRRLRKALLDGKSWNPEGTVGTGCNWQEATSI
UniProt Q9Y6Y9: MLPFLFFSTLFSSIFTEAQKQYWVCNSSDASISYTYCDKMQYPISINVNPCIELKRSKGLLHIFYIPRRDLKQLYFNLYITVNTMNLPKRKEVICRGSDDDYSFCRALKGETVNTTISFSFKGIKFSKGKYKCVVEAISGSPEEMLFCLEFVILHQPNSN

What follows are binders tested against T1, TLR4/MD-2 (Homo sapiens, UniProt O00206+Q9Y6Y9) (assay: ELISA, peptide immobilized, alanine scanning).

binding, binds:
FQEFAILVIK (acetylation at the amino terminus; amidation at the carboxyl terminus) [Peptide3A5], FQEFLALVIK (acetylation at the amino terminus; amidation at the carboxyl terminus) [Peptide3A6], FQEFLIAVIK (acetylation at the amino terminus; amidation at the carboxyl terminus) [Peptide3A7], FQEFLILAIK (acetylation at the amino terminus; amidation at the carboxyl terminus) [Peptide3A8], FQEFLILVIA (acetylation at the amino terminus; amidation at the carboxyl terminus) [Peptide3A10]

What follows are binders tested against T1, TLR4/MD-2 (assay: divalent peptide sheet binding (FIG. 7A) and competition assay (FIG. 7B)).

binding, binds:
FQEFAILVI [SEQ ID NO 3], QEFAILV [SEQ ID NO 4]

The binders below were run against T1, TLR4/MD-2 (assay: ELISA, peptide immobilized, TLR4/MD-2 detected with anti-TLR4 antibody, OD 450 nm).

binding, binds:
FQEFLILVIK [Peptide #3]

What follows are binders tested against T1, TLR4/MD-2 (assay: divalent peptides spot-synthesized on a cellulose membrane sheet, reacted with TLR4/MD-2).

binding, binds:
FQEFAILVIK [divalent Peptide3A5], FQEFAILVI [SEQ ID NO 3], QEFAILV [SEQ ID NO 4], EFAILVI [SEQ ID NO 5], EFAILV [SEQ ID NO 6], FAILVI [SEQ ID NO 7], FAILV [SEQ ID NO 8], AILVI [SEQ ID NO 9], AILVIK [SEQ ID NO 10], FQEFAILV [SEQ ID NO 11], QEFAILVI [SEQ ID NO 12]
